From patent US20100209467A1
Results are given in words; binding and its absence hold for the method and conditions named. Some entries that bind do so weakly or less than the wild type.

Protein sequences, listed by entry. Tags and fused reporters are not part of them. Residues count along the entry.
UniProt P36894, residues 24-152: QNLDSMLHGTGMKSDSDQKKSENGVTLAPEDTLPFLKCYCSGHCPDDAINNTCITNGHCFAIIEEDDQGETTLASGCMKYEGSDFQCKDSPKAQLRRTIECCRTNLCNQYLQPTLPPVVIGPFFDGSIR

Tests used:
[1] = target: ALK-3 (BMP receptor Type I/IA; BMPR-I/IA) (UniProt P36894); assay: radioligand receptor binding assay, competition with 125I-BMP-7 on immobilised receptor (FIG. 1)
[2] = target: ALK-3 (BMP receptor Type I/IA; BMPR-I/IA) (UniProt P36894); assay: radioligand receptor binding assay, competition with 125I-BMP-7 on immobilised receptor (FIG. 1, 15)

binding [1]: binds
binding [2]: binds
Binder: CYFDDSSNVLCKKYRS [TDFRP compound (SEQ ID NO:45)]
